From PMC12622526
Results are given in words; binding and its absence hold for the method and conditions named. Binding seen in cells or lysates may run through a third protein. Some entries that bind do so weakly or less than the wild type. For some assays here: Tags and fused reporters may be left off the sequences shown.

Tests used:
[1] = biological target: COA4 (cytochrome c oxidase assembly factor 4), endogenous (human) (UniProt Q9NYJ1); assay: proximity ligation; in situ Duolink PLA (Sigma–Aldrich DUO92101) in A549, 293T and H23 cells
[2] = biological target: COA4‐Flag (human cytochrome c oxidase assembly factor 4), transfected in A549 cells (human) (UniProt Q9NYJ1); assay: co-IP; Co‐IP of COA4‐Flag from transfected A549 cells; Pierce IP Lysis Buffer, primary antibody and Protein A/G magnetic beads overnight at 4 °C, Western blot

B1: SLC25A3 (protein, UniProt Q00325 50-362)
chain: AVEEQYSCDYGSGRFFILCGLGGIISCGTTHTALVPLDLVKCRMQVDPQKYKGIFNGFSVTLKEDGVRGLAKGWAPTFLGYSMQGLCKFGFYEVFKVLYSNMLGEENTYLWRTSLYLAASASAEFFADIALAPMEAAKVRIQTQPGYANTLRDAAPKMYKEEGLKAFYKGVAPLWMRQIPYTMMKFACFERTVEALYKFVVPKPRSECSKPEQLVVTFVAGYIAGVFCAIVSHPADSVVSVLNKEKGSSASLVLKRLGFKGVWKGLFARIIMIGTLTALQWFIYDSVKVYFRLPRPPPPEMPESLKKKLGLTQ
For B1, the binding [1] was “binds” and the binding [2] was “binds”.
